Experimental data: PMC6831308
These are yes or no findings as the source states them, for the method shown. Binding seen in cells or lysates may run through a third protein. Some entries that bind do so weakly or less than the wild type. Sequences can lack the tags named with a protein.

The chains behind the UniProt entries cited, without tags or fusion partners.
UniProt P21708: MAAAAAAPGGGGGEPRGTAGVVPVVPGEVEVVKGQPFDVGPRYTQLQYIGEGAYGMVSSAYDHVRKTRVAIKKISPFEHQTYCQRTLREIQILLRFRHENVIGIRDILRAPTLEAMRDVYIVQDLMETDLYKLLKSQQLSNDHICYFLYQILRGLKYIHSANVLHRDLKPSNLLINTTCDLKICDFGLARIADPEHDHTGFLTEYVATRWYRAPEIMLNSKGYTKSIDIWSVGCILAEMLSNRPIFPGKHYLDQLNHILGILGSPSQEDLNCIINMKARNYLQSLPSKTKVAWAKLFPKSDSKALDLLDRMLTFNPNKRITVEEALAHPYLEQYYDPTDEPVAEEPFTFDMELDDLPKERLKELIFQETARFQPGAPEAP
UniProt P63086: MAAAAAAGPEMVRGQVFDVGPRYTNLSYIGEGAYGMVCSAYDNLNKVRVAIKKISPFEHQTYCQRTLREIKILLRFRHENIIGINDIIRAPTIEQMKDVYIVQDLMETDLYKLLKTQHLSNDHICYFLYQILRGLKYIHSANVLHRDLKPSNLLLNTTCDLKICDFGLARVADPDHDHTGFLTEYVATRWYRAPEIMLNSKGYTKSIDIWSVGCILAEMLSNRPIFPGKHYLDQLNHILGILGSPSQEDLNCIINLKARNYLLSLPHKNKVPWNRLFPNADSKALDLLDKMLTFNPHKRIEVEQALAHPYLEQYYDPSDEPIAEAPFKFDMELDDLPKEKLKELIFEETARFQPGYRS

How the values were obtained:
[1] = target: ERK1 (rat (endogenous in primary cardiomyocytes of SD rats)) (UniProt P21708); assay: co-IP; IP with monoclonal antibodies against ERK1/2 (CST) and against Maf1 (Santa Cruz), Pierce Classic IP Kit; 1 mg precleared cell lysate with 1 ug antibody overnight at 4 C, protein A/G plus agarose; primary cardiomyocytes of SD rats, 50 uM PE for 24 hours; with and without adenoviral overexpression of Maf1
[2] = target: ERK2 (rat (endogenous in primary cardiomyocytes of SD rats)) (UniProt P63086); assay: as above

Binder	binding [1]	binding [2]
Maf1 (protein, UniProt Q5XIH0 1-260) MKLLENSSFEAINSQLTVETGDAHIIGRIESYSCKMAGDDKHMFKQFCQEGQPHVLEALSPPQTSGLSPSRLSKSQGGEDESPLSDKCSRKTLFYLIATLNESFRPDYDFSTARSHEFSREPSLRWVVNAVNCSLFSAVREDFKALKPQLWNAVDEEICLAECDIYSYNPDLDSDPFGEDGSLWSFNYFFYNKRLKRIVFFSCRSISGSTYTPSEAGNALDLELGAEEVDEESGGGGGGGEGRAEETSTMEEDRVPVICM	binds	binds
Maf1 overexpressed from recombinant adenovirus (Ad-Maf1) (protein, UniProt Q5XIH0 1-260) MKLLENSSFEAINSQLTVETGDAHIIGRIESYSCKMAGDDKHMFKQFCQEGQPHVLEALSPPQTSGLSPSRLSKSQGGEDESPLSDKCSRKTLFYLIATLNESFRPDYDFSTARSHEFSREPSLRWVVNAVNCSLFSAVREDFKALKPQLWNAVDEEICLAECDIYSYNPDLDSDPFGEDGSLWSFNYFFYNKRLKRIVFFSCRSISGSTYTPSEAGNALDLELGAEEVDEESGGGGGGGEGRAEETSTMEEDRVPVICM	binds	binds
